# The other results are listed elsewhere or left out.
# Biological target: T1, OsSMF1 (Oryza sativa, UniProt Q6ZLB0 1-436)
# T1 sequence: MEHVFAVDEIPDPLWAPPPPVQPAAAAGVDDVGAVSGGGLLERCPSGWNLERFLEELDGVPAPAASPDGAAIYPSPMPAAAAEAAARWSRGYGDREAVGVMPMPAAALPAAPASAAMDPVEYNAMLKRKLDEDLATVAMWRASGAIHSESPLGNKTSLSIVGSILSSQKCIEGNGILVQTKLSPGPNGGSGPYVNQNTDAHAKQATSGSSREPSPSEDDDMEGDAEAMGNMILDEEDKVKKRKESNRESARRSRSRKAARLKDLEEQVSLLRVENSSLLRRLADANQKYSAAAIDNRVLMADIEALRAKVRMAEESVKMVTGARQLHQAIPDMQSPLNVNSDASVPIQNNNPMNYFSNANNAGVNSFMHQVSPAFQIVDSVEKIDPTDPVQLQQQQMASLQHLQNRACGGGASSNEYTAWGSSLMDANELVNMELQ
# Assay: protein-binding microarray (RPBM); PBS, 2% BSA, 51.3 ng/ul salmon testes DNA, 50 uM zinc acetate, 200 nM TF, 25 C, 1 h; high values mean tight binding
# Details: protein: recombinant; tags: N-terminal polyhistidine and DsRed monomer fusion (pET32a); chain copies: 2; label: CyDye5-dUTP incorporated in the synthesized complementary strand; 3' TTTTT single-stranded linker to array surface; dsDNA, one strand shown
# Procedure, shortened: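 In PBS with 2% BSA, salmon testes DNA and 50 µM zinc acetate, 200 nM protein was incubated on a custom Agilent array at 25 °C for 1 h and then washed off. The array had been made double-stranded by primer extension with Cy5-dUTP and blocked with 2% BSA. The proteins were transcription factors fused N-terminally to polyhistidine and DsRed, expressed in E. coli BL21-CodonPlus and purified on Ni–NTA. The binding signal is per-feature fluorescence intensity (arbitrary units) from an Axon 4000B scanner.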
row,Sequence,binding signal
1,CGAGCTTGGGGTCGTGGTCATTGCTACCGTGGATGGCGAGCGGAGTCACCTAGTGCAG,5180 fluorescence intensity (a.u.)
2,CTGTTGCGCGGTCACAGCTCACACGTCGGCGGCTTCGCTACGGAGTCACCTAGTGCAG,6240 fluorescence intensity (a.u.)
3,CTAGAAATGAGATTGCACTCATACCACGACACACGCACACCGGAGTCACCTAGTGCAG,4120 fluorescence intensity (a.u.)
4,TCTACTAGCTTAAAAGCCAACTCATCTTCCTTCCGTCCACCGGAGTCACCTAGTGCAG,4720 fluorescence intensity (a.u.)
5,GCTCGGCCGGTTGCGGCGAGTTTGCACCACGACGGTGGGTCGGAGTCACCTAGTGCAG,3270 fluorescence intensity (a.u.)
6,GATCCTATAAAATTCCTGTGAAATGCCTCATTCAATAAAACGGAGTCACCTAGTGCAG,26700 fluorescence intensity (a.u.)
7,AGGGGTTGGTCTTGCCTACTACAAATCCTCCTCCACGTCACGGAGTCACCTAGTGCAG,11900 fluorescence intensity (a.u.)
8,ATGATAACTCCGTTAGTTTTAAAAGGTAGAGATAATTTACCGGAGTCACCTAGTGCAG,3280 fluorescence intensity (a.u.)
9,GGGCCGAACATAGGGTGGGTGCAGATGATGTCGAACTCCTCGGAGTCACCTAGTGCAG,3640 fluorescence intensity (a.u.)
10,ATCTTCGCTGCCGCCAACGGAGGCGCCTTAGGCAGCGAGCCGGAGTCACCTAGTGCAG,5750 fluorescence intensity (a.u.)
11,CCTTTAATCCCTTTAGTTTGTTTGTATTACGTGGCTAGCACGGAGTCACCTAGTGCAG,8290 fluorescence intensity (a.u.)
12,GATCGACTACGACGATGCCTTCGCTCCCGTGGCACGGATGCGGAGTCACCTAGTGCAG,4150 fluorescence intensity (a.u.)
13,CCCAGGGAGGCCAAACTACAAAGGCGATGCTTTCTACACACGGAGTCACCTAGTGCAG,41500 fluorescence intensity (a.u.)
14,ACACCCAGCTACAACTAATTTAAGCAAGAGTGAGGAGACTCGGAGTCACCTAGTGCAG,5250 fluorescence intensity (a.u.)
15,GGCCCGCGGAGCCAGGCTGAGGGGAAACGCTCGAATCGACCGGAGTCACCTAGTGCAG,27600 fluorescence intensity (a.u.)
16,ATGGGCTGATGCCCTTACGTGGGCCCACCACCCACCCCTGCGGAGTCACCTAGTGCAG,3770 fluorescence intensity (a.u.)
17,TTGAACTTTGCATCCATGGAGACAGTAATACTCTCTGGCCCGGAGTCACCTAGTGCAG,3720 fluorescence intensity (a.u.)
18,GAGCGTAGACATTACACGCACGCACCTAAGGCGGAGATCTCGGAGTCACCTAGTGCAG,3580 fluorescence intensity (a.u.)
19,AGAAGGCTCGCCTACCGCAACCTCGAGAAGATGATCGACGCGGAGTCACCTAGTGCAG,3400 fluorescence intensity (a.u.)
20,TACGATGAGTCATTTATTGATTATTGTATTAATGTTCCTTCGGAGTCACCTAGTGCAG,11500 fluorescence intensity (a.u.)
21,TGATTATACGTCAGCCGAATATGCATATACTTTGAGTTTTCGGAGTCACCTAGTGCAG,6760 fluorescence intensity (a.u.)
22,GTCGTCGCGCTACTTCCCGGCGGCGTCGTGGGGCGGGCTGCGGAGTCACCTAGTGCAG,4250 fluorescence intensity (a.u.)
23,GACACCGATGAAATCTCATGCTCCTCTGCCTGCCATGTGTCGGAGTCACCTAGTGCAG,3820 fluorescence intensity (a.u.)
24,ACAATGTTCCGGGTCTTATATTGCCAAATCAGTGACGTACCGGAGTCACCTAGTGCAG,59800 fluorescence intensity (a.u.)
25,GCGGCCACCCGCCTCGCCATCGCCAACCTCTCCACGCGTCCGGAGTCACCTAGTGCAG,3340 fluorescence intensity (a.u.)
26,CCTTGAGATCAGTCAGCACCACAGTGCCACTGCCACCCACCGGAGTCACCTAGTGCAG,4370 fluorescence intensity (a.u.)
27,TCTCCACCTAACGGCAGGCTCATGACTCATCATGGGCGCACGGAGTCACCTAGTGCAG,15800 fluorescence intensity (a.u.)

# A section from the list above:
row,Sequence,binding signal
16,ATGGGCTGATGCCCTTACGTGGGCCCACCACCCACCCCTGCGGAGTCACCTAGTGCAG,3770 fluorescence intensity (a.u.)
17,TTGAACTTTGCATCCATGGAGACAGTAATACTCTCTGGCCCGGAGTCACCTAGTGCAG,3720 fluorescence intensity (a.u.)

# As entered above:
# Value of CTGTTGCGCGGTCACAGCTCACACGTCGGCGGCTTCGCTACGGAGTCACCTAGTGCAG under binding signal: 6240 fluorescence intensity (a.u.)
# Value of GCGGCCACCCGCCTCGCCATCGCCAACCTCTCCACGCGTCCGGAGTCACCTAGTGCAG under binding signal: 3340 fluorescence intensity (a.u.)

# More records.

row,Sequence,binding signal
1,GATCAAAAGCAAGATGATGCGGATGGCACGTCACGATTGTCGGAGTCACCTAGTGCAG,10900 fluorescence intensity (a.u.)
2,ACCTATATGATTCATCCTCACTTAGTATTATTTCTCTCTTCGGAGTCACCTAGTGCAG,3400 fluorescence intensity (a.u.)
3,GGACTCCACCTCCTGGTGCACGCCTACGCGCGCGCGCGCCCGGAGTCACCTAGTGCAG,20100 fluorescence intensity (a.u.)
4,AAAGTCCACATATCTCACTATTTGAGGAACCCACATGGCACGGAGTCACCTAGTGCAG,3860 fluorescence intensity (a.u.)
5,CTGATCAGTGCACGTCTGACGTCTCGTTTATTGAACAGCTCGGAGTCACCTAGTGCAG,4390 fluorescence intensity (a.u.)
6,TGGCGTACGGCGGTAGCCGGCGCGGTAGAACCGATCGATCCGGAGTCACCTAGTGCAG,13300 fluorescence intensity (a.u.)
7,TAAAGGATCAGTTATCTTCAATGATGACATCAATGGTGGGCGGAGTCACCTAGTGCAG,4220 fluorescence intensity (a.u.)
8,CACAGAGGAACCGAGCTACACATGCGTGGCAGACATGGGACGGAGTCACCTAGTGCAG,3350 fluorescence intensity (a.u.)
9,GCCGGTCGAACCGCCCGAACACCTACGGTCAGACCGCTGCCGGAGTCACCTAGTGCAG,3360 fluorescence intensity (a.u.)
10,GACCCCTCCCCGCCGATTCCTCCCTCCTCCACGCGCGCGCCGGAGTCACCTAGTGCAG,3590 fluorescence intensity (a.u.)
11,TTCTTTTGTTGTGTGGGTGTATGTTTTGGTTATGTGCATTCGGAGTCACCTAGTGCAG,4110 fluorescence intensity (a.u.)
12,GAAGGGTATTAATCGGGCATATCTTGTTAGTATTCATTCCCGGAGTCACCTAGTGCAG,3470 fluorescence intensity (a.u.)
13,ACGGCCCATACAACCACCCTCCCCAAAACCCCAGCCCAAGCGGAGTCACCTAGTGCAG,22200 fluorescence intensity (a.u.)
14,CCACATGCCGTCGTCGCCGTTCCAGTGCTTTCTGTCACCACGGAGTCACCTAGTGCAG,3850 fluorescence intensity (a.u.)
15,TTTCAATAGAGTAATGACTCAGTAGGCCTCACTGATTAGTCGGAGTCACCTAGTGCAG,8340 fluorescence intensity (a.u.)
16,TCCAGTTTGACAGTTACAGTACAGATCGACGTGTAGAATACGGAGTCACCTAGTGCAG,4340 fluorescence intensity (a.u.)
17,TAGTAGTACTATGTAACCGGTACAGTCACCAAAACAGGGTCGGAGTCACCTAGTGCAG,5260 fluorescence intensity (a.u.)
18,TTGAAAGGGGAGATTTGCAATAATGACGCTGCAAACATTACGGAGTCACCTAGTGCAG,4000 fluorescence intensity (a.u.)
19,TTGGCGTGTGTGCAGCATTTGCGGCGGCGGCTGAGAAAGACGGAGTCACCTAGTGCAG,31100 fluorescence intensity (a.u.)
20,AATTCCCGCCAACGCAGGCAACCGTAAAGCTGACGACGAGCGGAGTCACCTAGTGCAG,3950 fluorescence intensity (a.u.)
21,TGCACACCCACCCACAGATTCACCATATTGGCGTGGCGGTCGGAGTCACCTAGTGCAG,4620 fluorescence intensity (a.u.)
22,GCTCCTCACCCGCCGTGAACCCAACCCACATCCGCTGACGCGGAGTCACCTAGTGCAG,3300 fluorescence intensity (a.u.)
23,TCTGCACAGATCTATGGCCTATGGGGACTGGAGTCAGCACCGGAGTCACCTAGTGCAG,4790 fluorescence intensity (a.u.)
24,CTCCGCCAGGCGCCCGCCTTGCTGGAGTTGCTGACGAAGGCGGAGTCACCTAGTGCAG,4060 fluorescence intensity (a.u.)
25,TTTCTATATAAACTATATACTCTACTTCTAATATTCCTTACGGAGTCACCTAGTGCAG,3160 fluorescence intensity (a.u.)
26,CGCATTGAGCCATTTACACTACACACACAGCCCCAGATTCCGGAGTCACCTAGTGCAG,3420 fluorescence intensity (a.u.)
27,GTTTGGTGGGAAACACACATCATCCTTGGCACTACTGTCACGGAGTCACCTAGTGCAG,5210 fluorescence intensity (a.u.)

# Reference: article PMC7819943, “Rice protein-binding microarrays: a tool to detect cis-acting elements near promoter regions in rice”
